No constants are given. Whether binding was seen depends on the method and setting. Binding seen in cells or lysates may run through a third protein. Binding can be weak; no strength is given. Sequences can lack the tags named with a protein.
Key:
[1] = biological target: T1, GST-Kap123 (S. cerevisiae) (UniProt P40069); experiment: pull-down; dissociation kinetics: pre-immobilised GST-importin:eS26^FLAG complexes with buffer, 1.5 µM or 375 nM RanGTP or Tsr2; samples withdrawn at 1, 2, 4 and 8 min; only the target purified
T1 sequence: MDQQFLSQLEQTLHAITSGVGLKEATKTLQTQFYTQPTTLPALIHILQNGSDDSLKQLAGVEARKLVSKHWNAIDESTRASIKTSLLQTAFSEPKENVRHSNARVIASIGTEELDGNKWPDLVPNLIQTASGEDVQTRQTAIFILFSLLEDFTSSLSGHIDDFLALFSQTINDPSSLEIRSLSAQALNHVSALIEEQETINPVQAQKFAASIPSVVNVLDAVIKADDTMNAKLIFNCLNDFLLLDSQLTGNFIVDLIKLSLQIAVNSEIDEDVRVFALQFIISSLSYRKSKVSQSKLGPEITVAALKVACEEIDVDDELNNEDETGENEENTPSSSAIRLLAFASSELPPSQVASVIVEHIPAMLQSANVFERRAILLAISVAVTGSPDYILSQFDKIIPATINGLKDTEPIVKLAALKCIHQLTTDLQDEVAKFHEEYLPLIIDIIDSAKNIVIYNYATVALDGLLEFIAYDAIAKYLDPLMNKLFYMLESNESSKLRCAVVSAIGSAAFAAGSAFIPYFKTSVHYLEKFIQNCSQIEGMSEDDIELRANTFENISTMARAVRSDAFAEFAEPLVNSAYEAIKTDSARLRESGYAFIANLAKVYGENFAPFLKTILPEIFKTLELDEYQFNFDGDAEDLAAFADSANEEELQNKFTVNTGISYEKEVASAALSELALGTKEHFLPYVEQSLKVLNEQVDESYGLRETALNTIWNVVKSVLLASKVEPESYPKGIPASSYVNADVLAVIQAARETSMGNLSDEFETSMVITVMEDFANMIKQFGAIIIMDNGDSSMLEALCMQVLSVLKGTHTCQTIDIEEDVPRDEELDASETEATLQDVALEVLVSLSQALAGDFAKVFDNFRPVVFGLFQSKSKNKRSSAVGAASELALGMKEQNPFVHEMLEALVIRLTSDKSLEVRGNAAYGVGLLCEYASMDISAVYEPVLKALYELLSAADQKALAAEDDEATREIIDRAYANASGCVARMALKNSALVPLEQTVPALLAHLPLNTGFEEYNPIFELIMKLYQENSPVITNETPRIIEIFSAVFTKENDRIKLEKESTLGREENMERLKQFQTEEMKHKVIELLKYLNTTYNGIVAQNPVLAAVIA

Chains of the proteins cited; added tags and fusions are not shown. Lines headed by an entry give the natural chain unless they say otherwise; changes in a name come on top.
UniProt P39938: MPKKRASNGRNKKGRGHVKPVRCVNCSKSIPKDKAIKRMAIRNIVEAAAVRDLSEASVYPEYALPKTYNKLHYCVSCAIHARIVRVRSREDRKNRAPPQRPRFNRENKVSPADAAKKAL

[2] = biological target: T2, GST-Pse1 (S. cerevisiae) (UniProt P32337); experiment: as above
T2 sequence: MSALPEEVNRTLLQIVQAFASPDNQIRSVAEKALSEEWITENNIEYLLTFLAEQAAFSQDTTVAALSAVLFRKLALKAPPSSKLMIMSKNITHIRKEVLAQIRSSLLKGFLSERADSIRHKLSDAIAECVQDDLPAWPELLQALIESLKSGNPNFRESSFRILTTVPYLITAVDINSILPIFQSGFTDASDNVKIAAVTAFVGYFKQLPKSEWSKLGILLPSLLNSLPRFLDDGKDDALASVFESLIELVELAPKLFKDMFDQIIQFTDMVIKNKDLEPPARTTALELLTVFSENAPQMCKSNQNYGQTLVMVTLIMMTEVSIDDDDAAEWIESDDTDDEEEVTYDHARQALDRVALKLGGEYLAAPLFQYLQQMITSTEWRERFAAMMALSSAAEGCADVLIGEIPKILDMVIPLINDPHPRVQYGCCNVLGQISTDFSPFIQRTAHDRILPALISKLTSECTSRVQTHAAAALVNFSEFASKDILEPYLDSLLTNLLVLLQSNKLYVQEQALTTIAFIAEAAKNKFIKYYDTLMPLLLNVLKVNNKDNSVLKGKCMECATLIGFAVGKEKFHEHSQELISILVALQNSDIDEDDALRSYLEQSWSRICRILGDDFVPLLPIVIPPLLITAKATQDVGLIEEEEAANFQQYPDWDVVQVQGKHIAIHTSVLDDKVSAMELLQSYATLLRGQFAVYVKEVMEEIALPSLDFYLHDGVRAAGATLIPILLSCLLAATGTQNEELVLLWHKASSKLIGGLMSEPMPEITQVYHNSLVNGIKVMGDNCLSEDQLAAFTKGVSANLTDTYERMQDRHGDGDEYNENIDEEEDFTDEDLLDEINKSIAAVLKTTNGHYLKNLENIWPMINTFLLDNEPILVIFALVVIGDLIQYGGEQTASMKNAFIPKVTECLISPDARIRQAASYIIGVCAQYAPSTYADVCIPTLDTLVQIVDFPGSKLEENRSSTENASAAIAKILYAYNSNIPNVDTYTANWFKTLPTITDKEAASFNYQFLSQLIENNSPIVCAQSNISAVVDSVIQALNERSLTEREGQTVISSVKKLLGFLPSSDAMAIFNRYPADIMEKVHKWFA

[3] = biological target: T1, GST-Kap123 (S. cerevisiae); experiment: pull-down; dissociation assay, 1 hr: GST-importin:r-protein^FLAG complexes pre-formed on Glutathione Sepharose (r-protein from E. coli lysate) incubated with buffer alone, 1.5 µM RanGTP, 1.5 µM Tsr2 or His6-Tsr2, or 3 nM 3'-end of 18S rRNA for 1 hr at 4°C; only the target purified

binding [1]: binds
binding [2]: binds
binding [3]: binds
Substance: eS26^FLAG (from UniProt P39938)

Reference: paper PMC4161973
